Experimental data published in the supplement of paper PMC12067093, “Discovery and optimisation of a covalent ligand for TRIM25 and its application to targeted protein ubiquitination” (Chemical Science, 2025).
The list shows a part of the results.

Protein sequences, listed by entry. Tags and fused reporters are not part of them. Lines headed by an entry give the natural chain unless they say otherwise; changes in a name come on top.
UniProt P27708: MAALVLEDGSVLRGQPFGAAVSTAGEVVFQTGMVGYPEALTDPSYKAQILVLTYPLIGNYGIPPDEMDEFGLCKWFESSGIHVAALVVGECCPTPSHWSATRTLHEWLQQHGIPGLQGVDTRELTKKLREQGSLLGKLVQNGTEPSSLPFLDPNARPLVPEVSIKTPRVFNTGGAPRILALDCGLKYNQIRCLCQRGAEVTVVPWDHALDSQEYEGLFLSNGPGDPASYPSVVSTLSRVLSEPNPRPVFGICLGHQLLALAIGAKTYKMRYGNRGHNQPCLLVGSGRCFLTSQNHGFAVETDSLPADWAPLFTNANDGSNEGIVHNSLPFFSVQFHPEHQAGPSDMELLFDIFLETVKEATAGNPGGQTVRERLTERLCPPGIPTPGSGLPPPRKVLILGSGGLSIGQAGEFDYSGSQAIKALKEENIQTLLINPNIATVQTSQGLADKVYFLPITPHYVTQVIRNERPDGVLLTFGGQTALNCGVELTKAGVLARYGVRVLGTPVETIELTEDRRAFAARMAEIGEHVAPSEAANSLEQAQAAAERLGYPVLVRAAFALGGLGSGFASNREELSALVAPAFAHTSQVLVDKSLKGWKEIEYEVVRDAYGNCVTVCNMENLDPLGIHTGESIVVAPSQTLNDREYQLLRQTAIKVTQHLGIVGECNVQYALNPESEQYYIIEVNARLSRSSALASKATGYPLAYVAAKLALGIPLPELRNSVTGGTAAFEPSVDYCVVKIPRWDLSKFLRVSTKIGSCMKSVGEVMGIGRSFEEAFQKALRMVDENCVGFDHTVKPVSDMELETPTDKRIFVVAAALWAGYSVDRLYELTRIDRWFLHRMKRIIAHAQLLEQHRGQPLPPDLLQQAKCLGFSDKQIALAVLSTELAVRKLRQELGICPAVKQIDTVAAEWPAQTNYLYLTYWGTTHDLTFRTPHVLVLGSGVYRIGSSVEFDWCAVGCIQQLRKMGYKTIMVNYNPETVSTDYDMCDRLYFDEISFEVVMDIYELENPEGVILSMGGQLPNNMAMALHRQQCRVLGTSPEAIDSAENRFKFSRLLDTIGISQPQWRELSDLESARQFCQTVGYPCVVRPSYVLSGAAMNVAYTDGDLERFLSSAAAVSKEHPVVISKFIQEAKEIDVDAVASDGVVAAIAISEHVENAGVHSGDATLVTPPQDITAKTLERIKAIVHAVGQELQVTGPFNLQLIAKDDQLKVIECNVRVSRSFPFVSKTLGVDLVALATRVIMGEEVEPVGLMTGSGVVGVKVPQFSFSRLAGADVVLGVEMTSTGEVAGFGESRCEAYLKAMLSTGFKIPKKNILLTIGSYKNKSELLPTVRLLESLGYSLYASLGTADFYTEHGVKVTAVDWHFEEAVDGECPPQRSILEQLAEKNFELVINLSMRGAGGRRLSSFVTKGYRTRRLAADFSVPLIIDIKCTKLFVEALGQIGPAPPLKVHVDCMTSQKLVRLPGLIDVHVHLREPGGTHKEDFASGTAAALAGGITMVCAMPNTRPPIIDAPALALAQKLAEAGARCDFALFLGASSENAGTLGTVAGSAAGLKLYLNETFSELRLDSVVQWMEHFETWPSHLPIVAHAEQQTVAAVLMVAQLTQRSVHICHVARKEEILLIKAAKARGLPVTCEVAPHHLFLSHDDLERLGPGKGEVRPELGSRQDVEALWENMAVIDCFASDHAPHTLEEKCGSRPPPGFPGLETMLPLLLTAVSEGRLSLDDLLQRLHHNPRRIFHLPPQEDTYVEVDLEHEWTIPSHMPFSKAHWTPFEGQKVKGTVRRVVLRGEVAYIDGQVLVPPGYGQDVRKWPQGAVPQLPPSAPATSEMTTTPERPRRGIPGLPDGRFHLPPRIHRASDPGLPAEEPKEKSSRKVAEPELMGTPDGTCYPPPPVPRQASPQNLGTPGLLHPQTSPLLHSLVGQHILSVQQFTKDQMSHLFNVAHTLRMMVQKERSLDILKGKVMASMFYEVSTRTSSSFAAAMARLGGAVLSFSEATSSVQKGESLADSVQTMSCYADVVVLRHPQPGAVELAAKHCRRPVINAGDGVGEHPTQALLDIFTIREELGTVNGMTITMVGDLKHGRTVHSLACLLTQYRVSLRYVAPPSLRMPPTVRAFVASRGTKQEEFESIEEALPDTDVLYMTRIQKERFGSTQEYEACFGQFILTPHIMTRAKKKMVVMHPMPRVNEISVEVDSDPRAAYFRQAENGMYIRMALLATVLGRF
UniProt Q6PJG6: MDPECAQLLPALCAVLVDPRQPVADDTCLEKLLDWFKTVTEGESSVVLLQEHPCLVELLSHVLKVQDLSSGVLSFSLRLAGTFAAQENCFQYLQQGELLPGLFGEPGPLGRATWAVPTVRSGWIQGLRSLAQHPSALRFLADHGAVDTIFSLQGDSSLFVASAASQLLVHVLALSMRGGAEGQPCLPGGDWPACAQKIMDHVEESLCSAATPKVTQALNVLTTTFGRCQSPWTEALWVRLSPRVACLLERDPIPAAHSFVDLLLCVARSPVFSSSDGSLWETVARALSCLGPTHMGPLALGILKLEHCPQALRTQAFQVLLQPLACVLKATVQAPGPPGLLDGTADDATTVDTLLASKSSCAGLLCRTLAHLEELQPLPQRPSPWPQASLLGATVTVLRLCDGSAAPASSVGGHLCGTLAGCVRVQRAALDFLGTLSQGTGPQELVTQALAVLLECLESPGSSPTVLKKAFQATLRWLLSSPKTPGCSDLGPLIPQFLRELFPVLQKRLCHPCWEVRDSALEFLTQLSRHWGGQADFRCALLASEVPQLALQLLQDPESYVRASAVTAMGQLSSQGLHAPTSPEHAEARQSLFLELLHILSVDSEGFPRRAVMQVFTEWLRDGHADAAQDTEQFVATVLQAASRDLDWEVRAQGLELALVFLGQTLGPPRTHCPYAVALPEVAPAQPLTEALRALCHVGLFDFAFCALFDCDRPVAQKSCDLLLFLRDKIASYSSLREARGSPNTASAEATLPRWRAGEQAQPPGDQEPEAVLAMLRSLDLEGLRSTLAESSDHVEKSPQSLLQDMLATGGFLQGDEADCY
UniProt Q06187: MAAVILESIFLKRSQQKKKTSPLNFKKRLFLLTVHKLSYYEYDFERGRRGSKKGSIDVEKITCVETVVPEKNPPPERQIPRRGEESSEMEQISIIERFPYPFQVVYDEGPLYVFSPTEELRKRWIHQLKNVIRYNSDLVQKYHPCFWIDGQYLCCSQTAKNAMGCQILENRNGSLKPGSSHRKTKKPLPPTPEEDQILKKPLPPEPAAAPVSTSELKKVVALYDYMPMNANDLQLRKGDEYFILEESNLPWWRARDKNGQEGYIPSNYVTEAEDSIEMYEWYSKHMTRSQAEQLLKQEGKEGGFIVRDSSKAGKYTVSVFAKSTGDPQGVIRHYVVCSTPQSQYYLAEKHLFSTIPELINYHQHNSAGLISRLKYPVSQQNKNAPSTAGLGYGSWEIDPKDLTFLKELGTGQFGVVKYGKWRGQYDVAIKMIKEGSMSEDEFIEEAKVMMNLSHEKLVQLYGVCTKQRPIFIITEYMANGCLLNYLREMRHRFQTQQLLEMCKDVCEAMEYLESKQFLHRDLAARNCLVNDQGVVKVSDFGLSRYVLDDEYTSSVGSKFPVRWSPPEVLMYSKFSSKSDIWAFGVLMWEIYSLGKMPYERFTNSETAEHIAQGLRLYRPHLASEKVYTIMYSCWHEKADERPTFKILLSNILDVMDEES
UniProt O95696: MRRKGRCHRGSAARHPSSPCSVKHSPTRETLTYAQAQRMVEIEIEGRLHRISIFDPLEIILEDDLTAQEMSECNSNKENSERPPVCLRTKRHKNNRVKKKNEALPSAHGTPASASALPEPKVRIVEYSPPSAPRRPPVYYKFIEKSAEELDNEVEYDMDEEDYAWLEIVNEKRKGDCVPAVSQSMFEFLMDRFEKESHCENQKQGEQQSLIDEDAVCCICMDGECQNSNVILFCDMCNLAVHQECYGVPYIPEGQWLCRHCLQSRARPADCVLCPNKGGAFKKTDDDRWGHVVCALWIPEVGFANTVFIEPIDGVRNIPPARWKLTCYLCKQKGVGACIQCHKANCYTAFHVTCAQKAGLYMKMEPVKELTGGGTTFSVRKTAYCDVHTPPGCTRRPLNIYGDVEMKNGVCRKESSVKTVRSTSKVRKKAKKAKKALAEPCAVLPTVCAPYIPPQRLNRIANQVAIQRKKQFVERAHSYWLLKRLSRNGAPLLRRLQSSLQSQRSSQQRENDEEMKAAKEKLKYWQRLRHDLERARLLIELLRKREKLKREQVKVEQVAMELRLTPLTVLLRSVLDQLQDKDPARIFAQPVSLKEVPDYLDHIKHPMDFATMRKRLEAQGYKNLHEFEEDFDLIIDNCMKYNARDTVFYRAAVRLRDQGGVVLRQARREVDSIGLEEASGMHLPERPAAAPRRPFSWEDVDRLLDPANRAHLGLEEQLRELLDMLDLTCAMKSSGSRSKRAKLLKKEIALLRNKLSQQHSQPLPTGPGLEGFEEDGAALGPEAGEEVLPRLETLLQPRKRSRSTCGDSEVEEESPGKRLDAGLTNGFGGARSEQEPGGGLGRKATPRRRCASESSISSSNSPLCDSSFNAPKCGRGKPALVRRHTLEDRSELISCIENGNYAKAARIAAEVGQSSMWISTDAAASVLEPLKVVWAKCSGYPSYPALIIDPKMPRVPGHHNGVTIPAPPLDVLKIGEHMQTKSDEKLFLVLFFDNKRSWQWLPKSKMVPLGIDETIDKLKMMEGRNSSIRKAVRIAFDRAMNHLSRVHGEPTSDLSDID
UniProt Q8N999, whole entry, looked up: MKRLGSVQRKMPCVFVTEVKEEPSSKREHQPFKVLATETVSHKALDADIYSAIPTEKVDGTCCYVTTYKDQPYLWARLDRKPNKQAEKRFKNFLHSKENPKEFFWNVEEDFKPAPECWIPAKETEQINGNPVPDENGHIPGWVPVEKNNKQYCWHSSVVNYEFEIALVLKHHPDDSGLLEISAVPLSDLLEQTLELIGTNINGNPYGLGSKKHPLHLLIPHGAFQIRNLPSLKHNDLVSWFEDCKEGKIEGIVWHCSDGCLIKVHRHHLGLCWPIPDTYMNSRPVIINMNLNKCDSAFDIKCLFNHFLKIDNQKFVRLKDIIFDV
UniProt Q8IU85: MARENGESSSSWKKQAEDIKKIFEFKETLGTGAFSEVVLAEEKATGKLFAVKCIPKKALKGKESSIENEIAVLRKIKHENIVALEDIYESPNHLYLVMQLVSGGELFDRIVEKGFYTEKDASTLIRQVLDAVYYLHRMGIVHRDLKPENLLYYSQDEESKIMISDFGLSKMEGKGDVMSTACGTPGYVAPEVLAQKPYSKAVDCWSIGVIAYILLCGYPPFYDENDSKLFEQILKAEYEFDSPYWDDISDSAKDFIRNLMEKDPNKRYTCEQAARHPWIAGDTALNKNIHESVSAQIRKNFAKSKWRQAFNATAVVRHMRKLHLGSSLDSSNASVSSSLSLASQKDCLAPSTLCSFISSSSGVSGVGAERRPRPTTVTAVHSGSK
UniProt Q9NWV4: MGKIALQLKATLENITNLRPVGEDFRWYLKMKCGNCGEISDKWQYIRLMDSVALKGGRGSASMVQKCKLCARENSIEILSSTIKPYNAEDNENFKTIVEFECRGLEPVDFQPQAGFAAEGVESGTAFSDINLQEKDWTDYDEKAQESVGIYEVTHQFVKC

Compound: CC1Cc2ccccc2N1C(=O)C1CCCN(C1)C(=O)CCl (mixture of isomers) [TRIM25 ligand 11 (diastereomer mixture)]
Test: probe-labelled cysteine peptide fold change vs DMSO (competition) (log2 fold change); higher = less target engagement (more negative = stronger competition)
Settings: 10 µM; THP-1; incubation time: 4 h
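Note: competitive chemoproteomic profiling in live THP-1 cells with an iodoacetamide desthiobiotin (IA-DTB) probe, comparing probe-labelled peptide intensities in compound-treated cells against DMSO-treated controls.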

| Target | probe-labelled cysteine peptide fold change |
| --- | --- |
| BRD8_Q9H0E9-2_941_CAIEADMK (UniProt Q9H0E9) | -0.0493 |
| C20orf27_Q9GZN8_106_CEYSAHK (UniProt Q9GZN8) | 0.0466 |
| BTAF1_O14981_1651_ILIFCQLK (UniProt O14981) | 0.0915 |
| CAD_P27708_1529_CDFALFLGASSENAGTLGTVAGSAAGLK (UniProt P27708) | 0.0356 |
| C8orf82_Q6P1X6_98_YEAAFPFLSPCGR (UniProt Q6P1X6) | -0.0198 |
| BRAT1_Q6PJG6_308_LEHCPQALR (UniProt Q6PJG6) | -0.0237 |
| BRAF_P15056_696_LMAECLK (UniProt P15056) | 0.0576 |
| BTK_Q06187_165_NAMGCQILENR (UniProt Q06187) | -0.126 |
| BST1_Q10588_271+280_LLQCVDHSTHPDCALK (UniProt Q10588) | 0.0735 |
| BRD4_O60885_674_YVTSCLR (UniProt O60885) | -0.084 |
| CAMSAP1_Q5T5Y3_947_EYSQHNGEDCGDAVSK (UniProt Q5T5Y3) | -0.0358 |
| BRD1_O95696_729_ELLDMLDLTCAMK (UniProt O95696) | -0.0243 |
| C1orf50_Q9BV19_189_ISMMDTLLSQSVALPPCTEPNFQGLTH (UniProt Q9BV19) | -0.116 |
| C11orf54_Q9H0W9_3_ACAEFSFHVPSLEELAGVMQK (UniProt Q9H0W9) | -0.285 |
| C16orf62_Q7Z3J2_277_ETCLNWFFK (UniProt Q7Z3J2) | 0.0325 |
| CALCOCO2_Q13137_443_QIFEDHVFCHSL (UniProt Q13137) | -0.145 |
| BSG_P35613_242_SSEHINEGETAMLVCK (UniProt P35613) | -0.00409 |
| BTAF1_O14981_1290_LHGILCDDMGLGK (UniProt O14981) | -0.0376 |
| CAD_P27708_183_ILALDCGLK (UniProt P27708) | -0.0145 |
| C16orf62_Q7Z3J2_864_LCETVMAQILEHLK (UniProt Q7Z3J2) | -0.0664 |

| Target | probe-labelled cysteine peptide fold change |
| --- | --- |
| CAMSAP1_Q5T5Y3_47_IAANLQWICAK (UniProt Q5T5Y3) | 0.0318 |
| C20orf27_Q9GZN8_156_CVGAELEYDSEHSDWHGFD (UniProt Q9GZN8) | -0.00603 |
| CAD_P27708_2016_GESLADSVQTMSCYADVVVLR (UniProt P27708) | -0.125 |
| BRD1_O95696_86_ENSERPPVCLR (UniProt O95696) | -0.0962 |
| C15orf40_Q8WUR7_62_GCVTIAIHAK (UniProt Q8WUR7) | -0.0875 |
| CALR_P27797_137_LFPNSLDQTDMHGDSEYNIMFGPDICGPGTK (UniProt P27797) | -0.102 |
| BRAT1_Q6PJG6_513_LCHPCWEVR (UniProt Q6PJG6) | 0.0701 |
| CALR_P27797_137_LFPNSLDQTDMHGDSEYNIMFGPDICGPGTKK (UniProt P27797) | -0.241 |
| CACYBP_Q9HB71_154_VKTDTVLILCR (UniProt Q9HB71) | -0.282 |
| C3orf80_F5H4A9_177_SDPSCASEHEMR (UniProt F5H4A9) | 0.175 |
| BTK_Q06187_337_HYVVCSTPQSQYYLAEK (UniProt Q06187) | -0.0303 |
| BRAT1_Q6PJG6_228_CQSPWTEALWVR (UniProt Q6PJG6) | 0.0375 |
| BRD4_O60885_607_CKPMSYEEK (UniProt O60885) | -0.147 |
| C12orf29_Q8N999_13_KMPCVFVTEVK (UniProt Q8N999) | -0.152 |
| C12orf29_Q8N999_302_CLFNHFLK (UniProt Q8N999) | -0.0449 |
| BTK_Q06187_502_FQTQQLLEMCK (UniProt Q06187) | -0.00548 |
| CAMK2D_Q13557_428_SNKPIHTIILNPHVHLVGDDAACIAYIR (UniProt Q13557) | -0.104 |
| CAMK1D_Q8IU85_270_YTCEQAAR (UniProt Q8IU85) | -0.0281 |
| C1QBP_Q07021_186_ALVLDCHYPEDEVGQEDEAESDIFSIR (UniProt Q07021) | -0.116 |
| C1orf123_Q9NWV4_102_TIVEFECR (UniProt Q9NWV4) | 0.0586 |
